Earlier results in patent US6395737B1, “Malonic acid derivatives, processes for their preparation, for their use and pharmaceutical compositions containing them” (Aventis Pharma Deutschland GmbH, priority 1999, dated 2002).
Some results were stated once for a whole list of compounds, not compound by compound.

Test system: thrombin and factor Xa
Conditions: relative to heparin; cited from earlier work

In the case of heparin sulfate, the “more potent inhibitors of Xa than of thrombin, differences in vitro” value is listed as 3-30 fold.
